For at least one compound, name, drawing or mass did not settle the structure.
Tested on: ASTER domain from Aster-B
Test: 22-NBD-cholesterol binding competition with sterols, Aster-B
Conditions: competitor 10 μM

C[C@]12CC[C@@H]3c4ccc(O)cc4CC[C@H]3[C@@H]1CC[C@@H]2O [estradiol]
inhibition of binding of NBD-cholesterol to the ASTER domain from Aster-B: comparatively poor competitors

Source: patent publication US20210255205A1, “COMPOSITIONS AND METHODS FOR TREATING METABOLIC DISEASE” (THE REGENTS OF THE UNIVERSITY OF CALIFORNIA, priority 2018, published 2021)
